Test results: PubChem BioAssay AID2685 (National Center for Advancing Translational Sciences (NCATS), 2010)
The list shows a part of the results. Further columns of the screen follow, without active or inactive calls. The list favours compounds with an active or inconclusive main result. The note in brackets gives the kind of curve behind each potency; many fits are weak.

Test: qHTS Assay for Lipid Storage Modulators in Drosophila S3 Cells;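 as to cell number change: cells counted by Cell Tracker Red CMTPX staining in the red channel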
Details: BODIPY lipid droplet fluorescence, 18-24 h; for cell number change: measured here: cell count max response, cells fed with added oleic acid
In short: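 Laser-scanning cytometry quantifies lipid droplet accumulation (500–530 nm total intensity; droplet/cell object ratio) in oleic acid-fed (400 uM added) Drosophila S3 cells treated with a concentration series. 20 uM Triacsin C defined 100% inhibition.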

[1] = measured here: lipid fluorescence (Fed channel) AC50, cells fed with added oleic acid
[2] = measured here: cell number channel AC50, cells fed with added oleic acid

Row | Compound | cell number change [%] | AC50 [1] | AC50 [2]
1 | CC(C)(C)c1ccc(Cn2cnc(-c3ccc([N+](=O)[O-])cc3)c2)cc1 | -22.6 | 18.4 µM [falling, partial curve, poor fit] | 
2 | COc1nccnc1NS(=O)(=O)c1ccc(NC(=S)NC(=O)c2ccc(F)c(F)c2)cc1 | 14.4 | 0.146 µM [rising, full curve, poor fit] | 
3 | O=C(O)CSc1c2c(nc3cc(C(=O)Nc4cccc(C(F)(F)F)c4)ccc13)CCCC2 |  |  | 1.64 µM [falling, partial curve]
4 | CCC(C)N1CCN(S(=O)(=O)Cc2ccccc2)CC1 (stereo not drawn) | -7.39 |  | 
5 | CC(=O)c1c(C)[nH]c(C(=O)N2CCc3ccccc3C2)c1C | 14.5 | 0.00461 µM [rising, full curve, poor fit] | 
6 | CCC(=O)Nc1ccc2oc(-c3ccccc3Br)nc2c1 | -11.2 | 0.291 µM [rising, full curve, poor fit] | 
7 | Cn1c(CSCc2ccc(Cl)c(Cl)c2)n[nH]c1=S | 15 | 3.66 µM [rising, partial curve, poor fit] | 
8 | C/C(=N/NS(=O)(=O)c1ccc(Cl)cc1)c1cccc(NC(=O)c2ccncc2)c1 | -38.6 |  | 35.5 µM [falling, single point]
9 | O=C(NCC1CCCO1)Nc1ccc(Cl)cc1 (stereo not drawn) | -11.3 | 4.11 µM [falling, single point] | 
10 | CCC(CC)C(=O)Nc1cccc(C(=O)Nc2nnc(C)s2)c1 | 93 |  | 20.6 µM [rising, single point]
11 | Cn1c(N2CCCC2)nc2c1c(=O)n(Cc1ccc(F)cc1)c(=O)n2C | 1.07 |  | 
12 | CCCn1nnnc1NCc1ccccc1F |  | 0.092 µM [falling, full curve, poor fit] | 
13 | O=C(CN1CC[C@@]2(O)CCCC[C@H]2[C@@H]1c1ccc(F)cc1)NCc1ccco1 | -5.61 |  | 
14 | O=C(CCCc1c[nH]c2ccccc12)NCc1cccs1 | -14.7 | 2.31 µM [falling, full curve, poor fit] | 0.164 µM [falling, partial curve, poor fit]
15 | CSc1ncccc1C(=O)OCC(=O)NC1CCCC1 | -4.04 |  | 
16 | CCSc1ccc(-c2ccc(C)cc2)nn1 | -18.2 |  | 
17 | CCCCOc1ccc(OCCCN2CCOCC2)cc1 | 57.7 |  | 18.4 µM [rising, single point]
18 | O=C1Nc2cc(C(=O)N3CCN(c4ccccn4)CC3)ccc2S/C1=C\c1ccccc1 | -43.6 |  | 4.11 µM [falling, partial curve]
19 | CN(CC(=O)NCCc1ccc(S(N)(=O)=O)cc1)CC(=O)Nc1ccccc1Cl | -5.57 |  | 
20 | O=C(Nc1nc2ccc(S(=O)(=O)N3CCCC3)cc2s1)c1cccs1 | -41.5 | 32.6 µM [falling, single point] | 14.6 µM [falling, single point]

Exported in markdown: entries from further up.

| Row | Compound | cell number change [%] | AC50 [1] | AC50 [2] |
| --- | --- | --- | --- | --- |
| 1 | CC(C)(C)c1ccc(Cn2cnc(-c3ccc([N+](=O)[O-])cc3)c2)cc1 | -22.6 | 18.4 µM [falling, partial curve, poor fit] |  |
| 3 | O=C(O)CSc1c2c(nc3cc(C(=O)Nc4cccc(C(F)(F)F)c4)ccc13)CCCC2 |  |  | 1.64 µM [falling, partial curve] |
| 4 | CCC(C)N1CCN(S(=O)(=O)Cc2ccccc2)CC1 (stereo not drawn) | -7.39 |  |  |
| 5 | CC(=O)c1c(C)[nH]c(C(=O)N2CCc3ccccc3C2)c1C | 14.5 | 0.00461 µM [rising, full curve, poor fit] |  |
| 6 | CCC(=O)Nc1ccc2oc(-c3ccccc3Br)nc2c1 | -11.2 | 0.291 µM [rising, full curve, poor fit] |  |
| 8 | C/C(=N/NS(=O)(=O)c1ccc(Cl)cc1)c1cccc(NC(=O)c2ccncc2)c1 | -38.6 |  | 35.5 µM [falling, single point] |
| 9 | O=C(NCC1CCCO1)Nc1ccc(Cl)cc1 (stereo not drawn) | -11.3 | 4.11 µM [falling, single point] |  |
| 10 | CCC(CC)C(=O)Nc1cccc(C(=O)Nc2nnc(C)s2)c1 | 93 |  | 20.6 µM [rising, single point] |
| 12 | CCCn1nnnc1NCc1ccccc1F |  | 0.092 µM [falling, full curve, poor fit] |  |
| 13 | O=C(CN1CC[C@@]2(O)CCCC[C@H]2[C@@H]1c1ccc(F)cc1)NCc1ccco1 | -5.61 |  |  |
| 14 | O=C(CCCc1c[nH]c2ccccc12)NCc1cccs1 | -14.7 | 2.31 µM [falling, full curve, poor fit] | 0.164 µM [falling, partial curve, poor fit] |
| 17 | CCCCOc1ccc(OCCCN2CCOCC2)cc1 | 57.7 |  | 18.4 µM [rising, single point] |
| 19 | CN(CC(=O)NCCc1ccc(S(N)(=O)=O)cc1)CC(=O)Nc1ccccc1Cl | -5.57 |  |  |
| 20 | O=C(Nc1nc2ccc(S(=O)(=O)N3CCCC3)cc2s1)c1cccs1 | -41.5 | 32.6 µM [falling, single point] | 14.6 µM [falling, single point] |

Continued:

Row | Compound | cell number change [%] | AC50 [1] | AC50 [2]
21 | Cc1ccc(-c2nnc(CSc3nc4cc5c(cc4cc3C)OCO5)o2)cc1 | 3.5 | 23.1 µM [rising, single point] | 
22 | O=C(OCC(=O)N1CCN(C(=O)c2ccco2)CC1)C1=COCCO1 | -12.6 | 6.51 µM [rising, single point] | 0.0731 µM [rising, full curve, poor fit]
23 | O=C(NCc1cccc(C(F)(F)F)c1)c1cc(Cl)ccc1Cl | 30.9 | 13 µM [rising, partial curve, poor fit] | 11.6 µM [rising, single point]
24 | CC12CN3CC(C)(CN(C1)C3c1cc3ccccc3[nH]1)C2=O (stereo not drawn) | -13.6 | 7.31 µM [falling, partial curve, poor fit] | 
25 | COc1cc(NC(=O)c2ccco2)c(C(=O)OCC(=O)c2c[nH]c3ccccc23)cc1OC | -56.5 | 0.164 µM [rising, full curve, poor fit] | 29.1 µM [falling, single point]
26 | O=C1OC2(CCCCC2)OC(=O)C1=CNc1nc2ccccc2s1 | 12.5 |  | 
27 | CCOc1cccc(-c2nnc3sc(-c4cc(OC)c(OC)cc4OC)nn23)c1 | 1.82 |  | 
28 | Cc1ccc(Cl)cc1NC(=O)C(NS(=O)(=O)c1cccs1)c1ccccc1 (stereo not drawn) | 32.8 | 25.9 µM [rising, partial curve, poor fit] | 3.26 µM [rising, partial curve]
29 | CC1(C)CC(NS(=O)(=O)c2ccc(C(C)(C)C)cc2)CC(C)(C)N1 |  | 29.1 µM [rising, single point] | 
30 | CCC(=O)c1cc2c(C)cc(=O)oc2c(C)c1OC(C)=O | 1.72 | 2.06 µM [rising, partial curve] | 
31 | Cc1cccc2c(SCC(=O)NCC3CCCO3)nc(-c3ccc(F)cc3)nc12 (stereo not drawn) | -10 |  | 
32 | Cc1cc(S(=O)(=O)NC2CCCC2)ccc1-n1cnnn1 | 11.3 | 29.1 µM [rising, single point] | 
33 | CCN(C(=O)Cn1c(=O)n2nc(CCn3nc(C)cc3C)nc2c2ccccc21)c1cccc(C)c1 | 1.47 |  | 
34 | CC(C)(C)Nc1nc(NC(C)(C)C)nc(-n2ccnc2)n1 | 143 | 4.11 µM [rising, partial curve] | 8.2 µM [rising, partial curve]
35 | N#CC1=C(N)Oc2c(ccc3ccccc23)C1c1cccs1 (stereo not drawn) |  | 1.46 µM [rising, partial curve] | 
36 | CCOC(=O)c1cc(CC)sc1NC(=O)Cc1ccccc1 | 40.4 | 20.6 µM [rising, single point] | 18.4 µM [rising, single point]
37 | COc1ccc(NC(=O)CN(C)CC(=O)N2CCCCCC2)cc1 |  |  | 3.26 µM [rising, partial curve]
38 | CN1CCN(c2ncc(CN3C(=O)c4ccccc4C3=O)s2)CC1 | 32.6 |  | 25.9 µM [rising, single point]
39 | O=C(Nc1ccc(F)c(Cl)c1)Nc1csc2ccccc12 | -59.7 | 29.1 µM [falling, single point] | 20.6 µM [falling, single point]
40 | O=C(c1ccco1)N1N=C(c2ccc(Cl)cc2)CC1(O)C(F)(F)F (stereo not drawn) | -81.9 | 23.1 µM [falling, single point] | 6.51 µM [falling, single point]

Row | Compound | cell number change [%] | AC50 [1] | AC50 [2]
41 | CC1(C)OC(=O)C(=NNc2ccc(Cl)cc2)C(=O)O1 |  | 6.51 µM [falling, single point] | 
42 | Cc1ccc(C(=O)NCCCNC(=O)c2ccco2)cn1 | 15.7 |  | 6.51 µM [rising, partial curve, poor fit]
43 | COc1ccc(N2CC(C(=O)N[C@@H](C)C(=O)NCCc3ccccc3)CC2=O)cc1 (stereo partly drawn) | 3.98 | 29.1 µM [rising, single point] | 
44 | O=C(CN1CCCCCC1)N/N=C/c1cccs1 | -129 | 20.6 µM [falling, partial curve] | 25.9 µM [falling, partial curve, poor fit]
45 | Cc1nnc(SCC(=O)NNC(=O)c2ccccc2)n1N | 0.634 | 0.00461 µM [falling, full curve, poor fit] | 
46 | Clc1cccc(Oc2cnns2)c1Cl | -33.4 |  | 9.2 µM [falling, partial curve, poor fit]
47 | CCOC(=O)c1cnn(-c2ccc(F)cc2)c1N | 128 |  | 20.6 µM [rising, partial curve]
48 | CCCC/C(O)=C1\C(=O)CC(C)(C)CC1=NCCCCCC(=O)O | -4.87 | 3.26 µM [falling, single point] | 
49 | CC(=O)Nc1ccc2nc(SCC(=O)Nc3ccc(N4CCOCC4)c(Cl)c3)sc2c1 | -11 | 18.4 µM [falling, partial curve, poor fit] | 
50 | COc1ccc2c(C)cc(N3CCN(Cc4ccccc4)CC3)nc2c1 | 13.5 | 7.31 µM [rising, partial curve, poor fit] | 
51 | Cc1cc(C)c2sc(N(CCCN(C)C)C(=O)c3ccc(S(=O)(=O)N4CCCc5ccccc54)cc3)nc2c1 | -80.7 | 29.1 µM [falling, single point] | 23.1 µM [falling, partial curve]
52 | O=C(CNC(=O)c1cncc(Br)c1)Nc1ccc(F)c(F)c1F | 30.8 |  | 1.16 µM [rising, partial curve, poor fit]
53 | CCOC(=O)Cc1csc(NC(=O)CSc2nc3sc(C(=O)O)c(C)c3c(=O)[nH]2)n1 | -9.82 | 0.651 µM [falling, full curve] | 0.731 µM [falling, single point]
54 | O=C(Cc1ncn[nH]1)NCCc1ccccc1 | 8.31 | 6.51 µM [rising, partial curve, poor fit] | 1.3 µM [falling, single point]
55 | O=c1cc(CSc2nnnn2-c2ccccc2)nc2sccn12 | 24.8 | 9.2 µM [rising, partial curve] | 
56 | CCN1C(=O)[C@@H]2Cc3c([nH]c4ccccc34)C(c3ccc(OC)cc3)N2C1=S (stereo partly drawn) | -16.2 | 6.51 µM [rising, single point] | 
57 | Cc1ccc(C2NS(=O)(=O)N=C2N)cc1 (stereo not drawn) | -49.6 | 0.146 µM [falling, full curve] | 0.164 µM [falling, full curve]
58 | CCCC1CCC(C(=O)n2nc(N)c3cc4ccc(OC)cc4nc32)CC1 (stereo not drawn) | 10.3 | 0.82 µM [rising, full curve] | 
59 | CCc1cc2c(C)ccc(C)c2nc1SCC(=O)Nc1cc(C)on1 | -11.8 |  | 
60 | Cc1cc(C)c2c(=O)n(CC(=O)Nc3cccc(Cl)c3C)sc2n1 | -57.5 |  | 16.4 µM [falling, single point]
